Article PMC5503621

Tests used:
GST-OVOL2 [1] = test: EMSA; settings: EMSA: Beyotime EMSA/Gel-Shift Binding Buffer, 10 uL, 2 nM labeled DNA, 5 nM protein, 25 C 30 min; native 4% PAGE in 0.5x TBE; salt and pH not stated; recombinant protein; protein details: GST
GST-OVOL2 [2] = test: competition with a labelled probe; settings: unlabeled mutant vs labeled probe2; EMSA: Beyotime EMSA/Gel-Shift Binding Buffer, 10 uL, 2 nM labeled DNA, 5 nM protein, 25 C 30 min; native 4% PAGE in 0.5x …; salt and pH not stated; recombinant protein; protein details: GST; label: unlabeled competitor

Sequence | binding result (GST-OVOL2 [1]) | binding result (GST-OVOL2 [2])
CTCGACAAGTTGGCAGCAACAACACGGCCC (double strand) [probe1 (oligo1, Smad4 promoter site 3)] | no binding | 
GTCGTCGCCGCTGCGGGGACGGAGCGGTTT (double strand) [mutated probe2] |  | no binding

For at least one entry, the source does not settle the construct or the ends of the probe. Negatives hold for the conditions tested.
